Measured values reported in publication PMC8342377.
Results are given in words; binding and its absence hold for the method and conditions named. Binding seen in cells or lysates may run through a third protein. A result given as binding can be weak or reduced; the word gives no strength.

Sequences of proteins named here, by UniProt entry; tags and fusion partners are left off. A change or cut given only in a name is not applied to a line headed by its entry. Residues count along the entry.
UniProt P08253: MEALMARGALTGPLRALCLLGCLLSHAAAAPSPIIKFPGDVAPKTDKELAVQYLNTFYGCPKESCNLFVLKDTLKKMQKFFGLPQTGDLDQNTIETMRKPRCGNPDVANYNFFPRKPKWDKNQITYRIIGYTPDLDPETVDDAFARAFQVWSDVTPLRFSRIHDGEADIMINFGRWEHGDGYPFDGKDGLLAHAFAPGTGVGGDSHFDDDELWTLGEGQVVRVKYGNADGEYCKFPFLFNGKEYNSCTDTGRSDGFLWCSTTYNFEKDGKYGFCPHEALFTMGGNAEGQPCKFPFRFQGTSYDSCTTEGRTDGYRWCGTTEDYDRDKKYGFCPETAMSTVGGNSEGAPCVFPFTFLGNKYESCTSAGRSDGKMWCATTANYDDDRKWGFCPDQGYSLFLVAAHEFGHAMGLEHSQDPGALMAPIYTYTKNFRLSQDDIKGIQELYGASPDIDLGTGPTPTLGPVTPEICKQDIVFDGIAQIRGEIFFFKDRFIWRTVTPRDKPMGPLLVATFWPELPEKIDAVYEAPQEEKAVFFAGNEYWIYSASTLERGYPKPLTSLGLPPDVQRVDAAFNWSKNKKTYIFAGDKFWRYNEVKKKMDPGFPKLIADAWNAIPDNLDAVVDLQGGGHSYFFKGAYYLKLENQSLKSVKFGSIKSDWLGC
UniProt P14780: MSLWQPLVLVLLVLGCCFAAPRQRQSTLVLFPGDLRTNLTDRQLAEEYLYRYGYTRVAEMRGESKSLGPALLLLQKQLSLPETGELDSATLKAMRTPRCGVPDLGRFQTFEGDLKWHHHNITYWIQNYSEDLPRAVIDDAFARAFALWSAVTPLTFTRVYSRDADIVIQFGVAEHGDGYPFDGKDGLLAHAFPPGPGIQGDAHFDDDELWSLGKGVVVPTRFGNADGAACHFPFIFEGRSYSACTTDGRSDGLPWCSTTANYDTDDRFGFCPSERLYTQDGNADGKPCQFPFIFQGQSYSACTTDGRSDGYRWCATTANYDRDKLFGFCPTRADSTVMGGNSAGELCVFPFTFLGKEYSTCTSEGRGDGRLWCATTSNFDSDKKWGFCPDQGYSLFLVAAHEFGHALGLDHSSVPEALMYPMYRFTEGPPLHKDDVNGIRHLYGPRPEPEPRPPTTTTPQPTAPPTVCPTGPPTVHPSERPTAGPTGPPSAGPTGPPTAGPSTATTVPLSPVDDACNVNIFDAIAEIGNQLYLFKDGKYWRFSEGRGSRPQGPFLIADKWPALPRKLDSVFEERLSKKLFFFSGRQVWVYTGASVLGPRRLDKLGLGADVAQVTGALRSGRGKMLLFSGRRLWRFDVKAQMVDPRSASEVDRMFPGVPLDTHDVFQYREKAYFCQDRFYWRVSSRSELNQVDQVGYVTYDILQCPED
UniProt P01033, residues 24-207: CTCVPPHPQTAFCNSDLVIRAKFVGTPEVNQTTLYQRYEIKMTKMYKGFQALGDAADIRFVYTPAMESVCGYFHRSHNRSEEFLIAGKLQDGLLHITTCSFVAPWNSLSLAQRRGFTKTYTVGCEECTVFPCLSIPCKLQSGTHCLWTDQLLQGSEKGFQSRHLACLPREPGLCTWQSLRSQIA

What was measured:
[1] = molecular target: MMP-2 (human (endogenous in dentin)) (UniProt P08253); experiment: co-IP; concentrated dentin proteins > 30 kDa (Vivaspin cut-off 30 kDa); anti-MMP-2 or anti-MMP-9 antibody overnight at 4 °C, Protein A/G Plus-Agarose 4 h at 4 °C; 12% SDS-PAGE and immunoblot for TIMP-1
[2] = molecular target: MMP-9 (human (endogenous in dentin)) (UniProt P14780); experiment: as above

## tissue inhibitor of metalloproteinases-1 (from UniProt P01033 24-207)
[1]
  binding: binds
[2]
  binding: binds
